Assay results published in doi:10.1101/2024.08.15.608058.

Protein sequences, listed by entry. Tags and fused reporters are not part of them.
UniProt Q5TEA3: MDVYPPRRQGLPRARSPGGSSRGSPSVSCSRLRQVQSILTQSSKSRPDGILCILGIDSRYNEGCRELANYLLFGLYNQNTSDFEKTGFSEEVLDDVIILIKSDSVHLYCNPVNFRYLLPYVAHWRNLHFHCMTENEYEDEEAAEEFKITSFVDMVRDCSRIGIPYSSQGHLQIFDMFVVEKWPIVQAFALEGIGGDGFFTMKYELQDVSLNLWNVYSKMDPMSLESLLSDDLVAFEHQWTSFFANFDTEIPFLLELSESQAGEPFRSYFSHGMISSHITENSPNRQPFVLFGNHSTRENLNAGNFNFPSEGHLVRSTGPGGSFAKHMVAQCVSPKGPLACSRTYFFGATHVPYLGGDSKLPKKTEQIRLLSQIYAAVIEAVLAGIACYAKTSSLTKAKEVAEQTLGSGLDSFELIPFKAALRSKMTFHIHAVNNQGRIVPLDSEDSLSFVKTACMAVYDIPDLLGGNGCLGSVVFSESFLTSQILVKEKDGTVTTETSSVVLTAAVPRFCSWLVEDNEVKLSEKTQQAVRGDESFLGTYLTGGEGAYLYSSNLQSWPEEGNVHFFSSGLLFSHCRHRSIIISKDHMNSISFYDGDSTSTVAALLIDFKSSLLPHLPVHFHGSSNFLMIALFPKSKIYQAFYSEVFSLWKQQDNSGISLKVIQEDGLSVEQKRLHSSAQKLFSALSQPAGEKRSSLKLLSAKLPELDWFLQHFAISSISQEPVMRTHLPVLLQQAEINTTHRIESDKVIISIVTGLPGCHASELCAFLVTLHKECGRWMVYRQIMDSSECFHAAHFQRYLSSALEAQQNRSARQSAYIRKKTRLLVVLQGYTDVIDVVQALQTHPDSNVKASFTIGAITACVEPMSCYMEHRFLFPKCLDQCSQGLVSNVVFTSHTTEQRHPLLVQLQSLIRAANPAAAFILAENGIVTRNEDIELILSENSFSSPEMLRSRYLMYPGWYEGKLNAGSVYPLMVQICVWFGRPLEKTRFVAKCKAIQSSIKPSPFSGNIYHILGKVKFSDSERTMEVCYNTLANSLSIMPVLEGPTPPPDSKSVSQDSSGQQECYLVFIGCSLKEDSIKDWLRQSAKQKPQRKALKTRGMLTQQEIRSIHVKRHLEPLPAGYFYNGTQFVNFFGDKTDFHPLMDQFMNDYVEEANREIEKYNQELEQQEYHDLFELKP

Assays:
[1] = biological target: recombinant human C20orf194/DNAAF9 (human) (UniProt Q5TEA3); assay: SEC
[2] = biological target: T1, recombinant Tetrahymena thermophila Shulin (Tetrahymena thermophila) (UniProt Q22YU3); assay: SEC
T1 sequence: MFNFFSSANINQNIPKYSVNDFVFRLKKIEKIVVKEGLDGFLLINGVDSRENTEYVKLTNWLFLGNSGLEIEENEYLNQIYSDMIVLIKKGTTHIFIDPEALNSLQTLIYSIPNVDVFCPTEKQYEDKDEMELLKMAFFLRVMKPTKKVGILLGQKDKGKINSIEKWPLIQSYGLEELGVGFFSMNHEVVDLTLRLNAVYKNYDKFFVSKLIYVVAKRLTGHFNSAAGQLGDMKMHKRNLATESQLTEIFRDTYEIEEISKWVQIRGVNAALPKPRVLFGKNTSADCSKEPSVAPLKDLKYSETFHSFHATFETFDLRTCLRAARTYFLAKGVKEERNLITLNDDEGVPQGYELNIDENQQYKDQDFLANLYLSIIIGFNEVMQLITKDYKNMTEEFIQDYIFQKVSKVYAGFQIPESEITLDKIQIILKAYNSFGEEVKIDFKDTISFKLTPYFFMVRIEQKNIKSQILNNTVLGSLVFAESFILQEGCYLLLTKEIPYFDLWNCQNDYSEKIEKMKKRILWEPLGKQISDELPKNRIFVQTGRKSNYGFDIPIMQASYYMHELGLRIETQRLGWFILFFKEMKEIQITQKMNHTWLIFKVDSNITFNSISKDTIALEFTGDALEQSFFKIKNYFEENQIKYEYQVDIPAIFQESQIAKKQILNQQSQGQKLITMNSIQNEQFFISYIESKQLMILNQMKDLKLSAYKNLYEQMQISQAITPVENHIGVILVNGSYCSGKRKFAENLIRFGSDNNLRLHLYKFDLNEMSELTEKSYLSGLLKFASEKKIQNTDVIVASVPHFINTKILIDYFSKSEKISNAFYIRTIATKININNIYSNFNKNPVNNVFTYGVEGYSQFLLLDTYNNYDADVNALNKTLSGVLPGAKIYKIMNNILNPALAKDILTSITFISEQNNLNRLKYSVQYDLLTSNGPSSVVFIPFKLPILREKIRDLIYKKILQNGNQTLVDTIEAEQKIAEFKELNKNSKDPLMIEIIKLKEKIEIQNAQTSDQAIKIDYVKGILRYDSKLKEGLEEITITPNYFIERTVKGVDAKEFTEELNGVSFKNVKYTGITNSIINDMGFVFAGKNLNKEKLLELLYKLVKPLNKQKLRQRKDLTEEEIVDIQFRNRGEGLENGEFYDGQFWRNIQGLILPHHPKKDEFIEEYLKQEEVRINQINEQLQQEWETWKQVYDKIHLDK

[3] = biological target: recombinant human C20orf194/DNAAF9 (human) (UniProt Q5TEA3); assay: SEC; remark: listed apart in the source
[4] = biological target: T1, recombinant Tetrahymena thermophila Shulin (Tetrahymena thermophila); assay: negative-stain electron microscopy
[5] = biological target: recombinant human C20orf194/DNAAF9 (human) (UniProt Q5TEA3); assay: negative-stain electron microscopy
[6] = biological target: T1, recombinant Tetrahymena thermophila Shulin (Tetrahymena thermophila); assay: SEC; remark: listed apart in the source

## Tetrahymena thermophila Arl3 Q70L (GTP mimicking variant) (from UniProt Q229S0)
[1]
  binding: binds
[2]
  binding: binds
[3]
  binding: binds
[4]
  binding: binds
[5]
  binding: binds
[6]
  binding: binds

## Tetrahymena thermophila Arl3 T30N (GDP mimicking variant) (from UniProt Q229S0)
[1]
  binding: binds
[3]
  binding: no binding (only in the presence of GDP)

## Tetrahymena thermophila small GTPase Arl3, wildtype (from UniProt Q229S0)
[1]
  binding: binds
[3]
  binding: no binding (only in the presence of GDP)

No constants are given. Whether binding was seen depends on the method and setting. Binding calls can cover weak binding; strength is not graded here.
